No constants are given. Whether binding was seen depends on the method and setting. In cells and extracts the contact can be indirect. Some results given as binding are weak or reduced against the parent protein; the word gives no strength.
Tests used:
[1] = biological target: MIWI^YK (MIWI Y569L/K573E, MID-domain piRNA loading-deficient mutant), endogenous in Miwi^YK/YK knock-in mouse testes (mouse (endogenous in mouse testes)) (UniProt Q9JMB7); test: co-IP; anti-MIWI (in-house rabbit polyclonal) IP from mouse testicular lysate (18 dpp or adult; wildtype, Miwi^YY/YY, Miwi^YK/YK, Tdrd6^−/−), immunoblot for TDRKH and TDRD6; with or without RNase A treatment of the lysate; antibody-coupled Protein A/G beads, 4 °C, wash with 500 mM NaCl
[2] = biological target: MIWI^YY (MIWI Y346A/Y347A, PAZ-domain piRNA loading-deficient mutant), endogenous in Miwi^YY/YY knock-in mouse testes (mouse (endogenous in mouse testes)) (UniProt Q9JMB7); test: as above
[3] = biological target: Flag-tagged MIWI stably expressed in GC-2spd (ts) cells (mouse) (UniProt Q9JMB7); test: co-IP; lysates of GC-2spd (ts) cells stably expressing Flag-tagged MIWI; with or without piRNA transfection and RNase A treatment; TDRKH blot normalised with MIWI blotting

Chains of the proteins cited; added tags and fusions are not shown. Lines headed by an entry give the natural chain unless they say otherwise; changes in a name come on top.
UniProt Q9JMB7: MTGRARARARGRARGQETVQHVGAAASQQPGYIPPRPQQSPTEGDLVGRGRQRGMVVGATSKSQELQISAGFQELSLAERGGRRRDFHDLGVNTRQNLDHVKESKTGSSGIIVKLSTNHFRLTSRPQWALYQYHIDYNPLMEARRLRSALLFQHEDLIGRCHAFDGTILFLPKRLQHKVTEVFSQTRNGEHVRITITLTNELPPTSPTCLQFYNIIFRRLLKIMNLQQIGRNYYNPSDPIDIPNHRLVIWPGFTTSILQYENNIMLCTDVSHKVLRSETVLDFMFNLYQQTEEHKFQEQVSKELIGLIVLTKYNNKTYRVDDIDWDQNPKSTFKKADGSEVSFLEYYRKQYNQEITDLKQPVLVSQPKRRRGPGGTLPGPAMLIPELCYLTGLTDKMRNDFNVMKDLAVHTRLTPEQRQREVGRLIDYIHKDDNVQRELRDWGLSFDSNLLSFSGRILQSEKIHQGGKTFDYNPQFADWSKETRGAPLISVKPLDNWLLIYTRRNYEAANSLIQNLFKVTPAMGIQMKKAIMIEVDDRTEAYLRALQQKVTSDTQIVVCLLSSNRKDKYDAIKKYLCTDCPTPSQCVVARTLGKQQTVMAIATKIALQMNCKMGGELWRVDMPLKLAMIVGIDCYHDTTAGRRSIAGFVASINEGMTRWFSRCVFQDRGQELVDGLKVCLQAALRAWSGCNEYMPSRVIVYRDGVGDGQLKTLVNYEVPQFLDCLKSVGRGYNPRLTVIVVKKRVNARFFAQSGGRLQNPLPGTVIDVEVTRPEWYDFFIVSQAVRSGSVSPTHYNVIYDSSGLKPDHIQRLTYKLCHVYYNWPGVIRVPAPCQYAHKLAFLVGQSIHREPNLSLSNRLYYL

binding [1]	binding [2]	binding [3]	Binder
binds	binds		TDRKH (mitochondria-anchored Tudor domain-containing protein), endogenous in mouse testes (protein, UniProt Q80VL1 1-560) MSTERTSWTNLSTIQKIALGLGIPASATVAYILYRRYRESREERLTFVGEDDIEIEMRVPQEAVKLIIGRQGANIKQLRKQTGARIDVDTEDVGDERVLLISGFPVQVCKAKAAIHQILTENTPVFEQLSVPQRSVGRIIGRGGETIRSICKASGAKITCDKESEGTLLLSRLIKISGTQKEVAAAKHLILEKVSEDEELRKRIAHSAETRVPRKQPISVRREEVTEPGGAGEAALWKNTNSSMGPATPLEVPLRKGGGDMVVVGPKEGSWEKPNDDSFQNSGAQSSPETSMFEIPSPDFSFHADEYLEVYVSASEHPNHFWIQIIGSRSLQLDKLVSEMTQHYENSLPEDLTVHVGDIVAAPLSTNGSWYRARVLGTLENGNLDLYFVDFGDNGDCALKDLRALRSDFLSLPFQAIECSLARIAPTGEEWEEEALDEFDRLTHCADWKPLVAKISSYVQTGISTWPKIYLYDTSDEKKLDIGLELVRKGYAVELPEDMEENRTVPNMLKDMATETDDSLASILTETKKSPEEMPHTLSCLSLSEAASMSGDDNLEDDLF
		binds	TDRKH in GC-2spd (ts) cells (protein, UniProt Q80VL1 1-560) MSTERTSWTNLSTIQKIALGLGIPASATVAYILYRRYRESREERLTFVGEDDIEIEMRVPQEAVKLIIGRQGANIKQLRKQTGARIDVDTEDVGDERVLLISGFPVQVCKAKAAIHQILTENTPVFEQLSVPQRSVGRIIGRGGETIRSICKASGAKITCDKESEGTLLLSRLIKISGTQKEVAAAKHLILEKVSEDEELRKRIAHSAETRVPRKQPISVRREEVTEPGGAGEAALWKNTNSSMGPATPLEVPLRKGGGDMVVVGPKEGSWEKPNDDSFQNSGAQSSPETSMFEIPSPDFSFHADEYLEVYVSASEHPNHFWIQIIGSRSLQLDKLVSEMTQHYENSLPEDLTVHVGDIVAAPLSTNGSWYRARVLGTLENGNLDLYFVDFGDNGDCALKDLRALRSDFLSLPFQAIECSLARIAPTGEEWEEEALDEFDRLTHCADWKPLVAKISSYVQTGISTWPKIYLYDTSDEKKLDIGLELVRKGYAVELPEDMEENRTVPNMLKDMATETDDSLASILTETKKSPEEMPHTLSCLSLSEAASMSGDDNLEDDLF
